Taken from: PubChem BioAssay AID743121 (NCATS, 2013)
Shown is a random part of about 26,000 deposited reagents. 167 of all reagents (0.63%) count as active. 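Calls are per gene from RSA p-values that are not deposited; an individual active-marked siRNA can sensitise only weakly.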 Entries without a mark were called inactive. Reagents against one gene are numbered here. Not all columns of the deposit are shown.

- Assay: 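Genes whose silencing strengthens cell killing by camptothecin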 (primary screen)
- Cells: MDA-MB-231 cells, a human breast cancer line
- Reagents: single siRNA against human genes, 20 nM siRNA (0.8 pmol per well)
- Timing: 120 h (drug added 48 h after transfection, read 72 h later)
- Conditions: camptothecin 20 nM (about EC30) for 72 h; vehicle 0.1% DMSO in parallel plates
- Measurement: 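Cell viability by ATP luminescence (CellTiter-Glo) as % of non-targeting siRNA wells, and the log2 ratio of viability without drug over viability with camptothecin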
- Direction: log2 vehicle/camptothecin viability: higher = stronger sensitisation to camptothecin; viability with camptothecin: higher = more viable cells
- Units: viability with camptothecin in % of control
- Active means: 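Each gene scored by redundant siRNA activity (RSA) over its individual siRNA ratios; a gene is called active at p < 0.001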

SIGLEC9 (GeneID 27180) #1
- log2 vehicle/camptothecin viability: -0.0232
- viability with camptothecin: 92.3

SIGLEC9 (GeneID 27180) #2
- log2 vehicle/camptothecin viability: -0.1
- viability with camptothecin: 40.2

SIGLEC9 (GeneID 27180) #3
- log2 vehicle/camptothecin viability: -0.504
- viability with camptothecin: 83.2

SIGLEC9 (GeneID 27180) #4
- log2 vehicle/camptothecin viability: -0.345
- viability with camptothecin: 35

NFAT5 (GeneID 10725) #1
- log2 vehicle/camptothecin viability: -0.222
- viability with camptothecin: 61.4

NFAT5 (GeneID 10725) #2
- log2 vehicle/camptothecin viability: 0.555
- viability with camptothecin: 60.2

NFAT5 (GeneID 10725) #3
- log2 vehicle/camptothecin viability: 0.74
- viability with camptothecin: 34.7

NFAT5 (GeneID 10725) #4
- log2 vehicle/camptothecin viability: -0.0421
- viability with camptothecin: 82

FOXN1 (GeneID 8456) #1
- log2 vehicle/camptothecin viability: 0.0109
- viability with camptothecin: 59.7

FOXN1 (GeneID 8456) #2
- log2 vehicle/camptothecin viability: -0.338
- viability with camptothecin: 84.7

FOXN1 (GeneID 8456) #3
- log2 vehicle/camptothecin viability: -0.384
- viability with camptothecin: 69.3

FOXN1 (GeneID 8456) #4
- log2 vehicle/camptothecin viability: 1.1
- viability with camptothecin: 15.3

TNXB (GeneID 7148) #1
- log2 vehicle/camptothecin viability: -0.0626
- viability with camptothecin: 88.3

TNXB (GeneID 7148) #2
- log2 vehicle/camptothecin viability: -0.433
- viability with camptothecin: 51.8

TNXB (GeneID 7148) #3
- log2 vehicle/camptothecin viability: 0.192
- viability with camptothecin: 93.1

TNXB (GeneID 7148) #4
- log2 vehicle/camptothecin viability: -0.169
- viability with camptothecin: 61.6

CACNA1C (GeneID 775) #1
- log2 vehicle/camptothecin viability: -0.28
- viability with camptothecin: 55.9

CACNA1C (GeneID 775) #2
- log2 vehicle/camptothecin viability: 0.136
- viability with camptothecin: 89.9

CACNA1C (GeneID 775) #3
- log2 vehicle/camptothecin viability: -0.0413
- viability with camptothecin: 107

CACNA1C (GeneID 775) #4
- log2 vehicle/camptothecin viability: 0.294
- viability with camptothecin: 7.83

LAMA1 (GeneID 284217) #1
- log2 vehicle/camptothecin viability: 0.127
- viability with camptothecin: 84.2

LAMA1 (GeneID 284217) #2
- log2 vehicle/camptothecin viability: -0.108
- viability with camptothecin: 98.5

LAMA1 (GeneID 284217) #3
- log2 vehicle/camptothecin viability: -0.257
- viability with camptothecin: 105

LAMA1 (GeneID 284217) #4
- log2 vehicle/camptothecin viability: 0.381
- viability with camptothecin: 76.3

MTM1 (GeneID 4534) #1
- log2 vehicle/camptothecin viability: -0.657
- viability with camptothecin: 108

MTM1 (GeneID 4534) #2
- log2 vehicle/camptothecin viability: -0.537
- viability with camptothecin: 87.2

MTM1 (GeneID 4534) #3
- log2 vehicle/camptothecin viability: -0.137
- viability with camptothecin: 92.8

MTM1 (GeneID 4534) #4
- log2 vehicle/camptothecin viability: -0.055
- viability with camptothecin: 88.7

PCDHA9 (GeneID 9752) #1
- log2 vehicle/camptothecin viability: 0.706
- viability with camptothecin: 27.2

PCDHA9 (GeneID 9752) #2
- log2 vehicle/camptothecin viability: -0.0451
- viability with camptothecin: 56.1

PCDHA9 (GeneID 9752) #3
- log2 vehicle/camptothecin viability: -0.251
- viability with camptothecin: 127

PCDHA9 (GeneID 9752) #4
- log2 vehicle/camptothecin viability: -0.648
- viability with camptothecin: 87.7

TREX1 (GeneID 11277) #1
- log2 vehicle/camptothecin viability: 0.284
- viability with camptothecin: 64.8

TREX1 (GeneID 11277) #2
- log2 vehicle/camptothecin viability: -0.073
- viability with camptothecin: 66.1

TREX1 (GeneID 11277) #3
- log2 vehicle/camptothecin viability: 0.103
- viability with camptothecin: 92.4

SCO2 (GeneID 9997) #1
- log2 vehicle/camptothecin viability: -0.16
- viability with camptothecin: 29.2

SCO2 (GeneID 9997) #2
- log2 vehicle/camptothecin viability: -0.00689
- viability with camptothecin: 103

SCO2 (GeneID 9997) #3
- log2 vehicle/camptothecin viability: -0.226
- viability with camptothecin: 84.2

SCO2 (GeneID 9997) #4
- log2 vehicle/camptothecin viability: -0.382
- viability with camptothecin: 76

CAV2 (GeneID 858) #1
- log2 vehicle/camptothecin viability: -0.167
- viability with camptothecin: 74.4

CAV2 (GeneID 858) #2
- log2 vehicle/camptothecin viability: 0.805
- viability with camptothecin: 43.2

CAV2 (GeneID 858) #3
- log2 vehicle/camptothecin viability: -0.387
- viability with camptothecin: 102

CAV2 (GeneID 858) #4
- log2 vehicle/camptothecin viability: -0.069
- viability with camptothecin: 56.9

CAV2 (GeneID 858) #5
- log2 vehicle/camptothecin viability: -0.122
- viability with camptothecin: 97.2

CAV2 (GeneID 858) #6
- log2 vehicle/camptothecin viability: 0.174
- viability with camptothecin: 81.9

CAV2 (GeneID 858) #7
- log2 vehicle/camptothecin viability: -0.0015
- viability with camptothecin: 108

CAV2 (GeneID 858) #8
- log2 vehicle/camptothecin viability: 0.237
- viability with camptothecin: 78.8

3 entries already listed, sorted by “viability with camptothecin”, highest first:
PCDHA9 (GeneID 9752) #3
- log2 vehicle/camptothecin viability: -0.251
- viability with camptothecin: 127

PCDHA9 (GeneID 9752) #4
- log2 vehicle/camptothecin viability: -0.648
- viability with camptothecin: 87.7

TREX1 (GeneID 11277) #1
- log2 vehicle/camptothecin viability: 0.284
- viability with camptothecin: 64.8
